These are yes or no findings as the source states them, for the method shown. In cells and extracts the contact can be indirect. Some results given as binding are weak or reduced against the parent protein; the word gives no strength.
B1: CstF77 (protein, UniProt Q12996 1-717)
chain: MSGDGATEQAAEYVPEKVKKAEKKLEENPYDLDAWSILIREAQNQPIDKARKTYERLVAQFPSSGRFWKLYIEAEIKAKNYDKVEKLFQRCLMKVLHIDLWKCYLSYVRETKGKLPSYKEKMAQAYDFALDKIGMEIMSYQIWVDYINFLKGVEAVGSYAENQRITAVRRVYQRGCVNPMINIEQLWRDYNKYEEGINIHLAKKMIEDRSRDYMNARRVAKEYETVMKGLDRNAPSVPPQNTPQEAQQVDMWKKYIQWEKSNPLRTEDQTLITKRVMFAYEQCLLVLGHHPDIWYEAAQYLEQSSKLLAEKGDMNNAKLFSDEAANIYERAISTLLKKNMLLYFAYADYEESRMKYEKVHSIYNRLLAIEDIDPTLVYIQYMKFARRAEGIKSGRMIFKKAREDTRTRHHVYVTAALMEYYCSKDKSVAFKIFELGLKKYGDIPEYVLAYIDYLSHLNEDNNTRVLFERVLTSGSLPPEKSGEIWARFLAFESNIGDLASILKVEKRRFTAFKEEYEGKETALLVDRYKFMDLYPCSASELKALGYKDVSRAKLAAIIPDPVVAPSIVPVLKDEVDRKPEYPKPDTQQMIPFQPRHLAPPGLHPVPGGVFPVPPAAVVLMKLLPPPICFQGPFVQVDELMEIFRRCKIPNTVEEAVRIITGGAPELAVEGNGPVESNAVLTKAVKRPNEDSDEDEEKGAVVPPVHDIYRARQQKRIR
B2: CPSF100 (protein, UniProt Q9P2I0 1-782)
chain: MTSIIKLTTLSGVQEESALCYLLQVDEFRFLLDCGWDEHFSMDIIDSLRKHVHQIDAVLLSHPDPLHLGALPYAVGKLGLNCAIYATIPVYKMGQMFMYDLYQSRHNTEDFTLFTLDDVDAAFDKIQQLKFSQIVNLKGKGHGLSITPLPAGHMIGGTIWKIVKDGEEEIVYAVDFNHKREIHLNGCSLEMLSRPSLLITDSFNATYVQPRRKQRDEQLLTNVLETLRGDGNVLIAVDTAGRVLELAQLLDQIWRTKDAGLGVYSLALLNNVSYNVVEFSKSQVEWMSDKLMRCFEDKRNNPFQFRHLSLCHGLSDLARVPSPKVVLASQPDLECGFSRDLFIQWCQDPKNSIILTYRTTPGTLARFLIDNPSEKITEIELRKRVKLEGKELEEYLEKEKLKKEAAKKLEQSKEADIDSSDESDIEEDIDQPSAHKTKHDLMMKGEGSRKGSFFKQAKKSYPMFPAPEERIKWDEYGEIIKPEDFLVPELQATEEEKSKLESGLTNGDEPMDQDLSDVPTKCISTTESIEIKARVTYIDYEGRSDGDSIKKIINQMKPRQLIIVHGPPEASQDLAECCRAFGGKDIKVYMPKLHETVDATSETHIYQVRLKDSLVSSLQFCKAKDAELAWIDGVLDMRVSKVDTGVILEEGELKDDGEDSEMQVEAPSDSSVIAQQKAMKSLFGDDEKETGEESEIIPTLEPLPPHEVPGHQSVFMNEPRLSDFKQVLLREGIQAEFVGGVLVCNNQVAVRRTETGRIGLEGCLCQDFYRIRDLLYEQYAIV
B3: hFip1 (protein, UniProt Q6UN15 1-594)
chain: MSAGEVERLVSELSGGTGGDEEEEWLYGGPWDVHVHSDLAKDLDENEVERPEEENASANPPSGIEDETAENGVPKPKVTETEDDSDSDSDDDEDDVHVTIGDIKTGAPQYGSYGTAPVNLNIKTGGRVYGTTGTKVKGVDLDAPGSINGVPLLEVDLDSFEDKPWRKPGADLSDYFNYGFNEDTWKAYCEKQKRIRMGLEVIPVTSTTNKITAEDCTMEVTPGAEIQDGRFNLFKVQQGRTGNSEKETALPSTKAEFTSPPSLFKTGLPPSRNSTSSQSQTSTASRKANSSVGKWQDRYGRAESPDLRRLPGAIDVIGQTITISRVEGRRRANENSNIQVLSERSATEVDNNFSKPPPFFPPGAPPTHLPPPPFLPPPPTVSTAPPLIPPPGFPPPPGAPPPSLIPTIESGHSSGYDSRSARAFPYGNVAFPHLPGSAPSWPSLVDTSKQWDYYARREKDRDRERDRDRERDRDRDRERERTRERERERDHSPTPSVFNSDEERYRYREYAERGYERHRASREKEERHRERRHREKEETRHKSSRSNSRRRHESEEGDSHRRHKHKKSKRSKEGKEAGSEPAPEQESTEATPAE
B4: CPSF73 (protein, UniProt Q9UKF6 1-684)
chain: MSAIPAEESDQLLIRPLGAGQEVGRSCIILEFKGRKIMLDCGIHPGLEGMDALPYIDLIDPAEIDLLLISHFHLDHCGALPWFLQKTSFKGRTFMTHATKAIYRWLLSDYVKVSNISADDMLYTETDLEESMDKIETINFHEVKEVAGIKFWCYHAGHVLGAAMFMIEIAGVKLLYTGDFSRQEDRHLMAAEIPNIKPDILIIESTYGTHIHEKREEREARFCNTVHDIVNRGGRGLIPVFALGRAQELLLILDEYWQNHPELHDIPIYYASSLAKKCMAVYQTYVNAMNDKIRKQININNPFVFKHISNLKSMDHFDDIGPSVVMASPGMMQSGLSRELFESWCTDKRNGVIIAGYCVEGTLAKHIMSEPEEITTMSGQKLPLKMSVDYISFSAHTDYQQTSEFIRALKPPHVILVHGEQNEMARLKAALIREYEDNDEVHIEVHNPRNTEAVTLNFRGEKLAKVMGFLADKKPEQGQRVSGILVKRNFNYHILSPCDLSNYTDLAMSTVKQTQAIPYTGPFNLLCYQLQKLTGDVEELEIQEKPALKVFKNITVIQEPGMVVLEWLANPSNDMYADTVTTVILEVQSNPKIRKGAVQKVSKKLEMHVYSKRLEIMLQDIFGEDCVSVKDDSILSVTVDGKTANLNLETRTVECEEGSEDDESLREMVELAAQRLYEALTPVH

By UniProt entry, the sequences of proteins in these tests, tags left out. Where a name states a change or a piece, a line headed by the entry shows the natural chain unless it says otherwise. Chains listed by the source or under a name are the forms on record and can include a tag or linker.
UniProt Q8NI27: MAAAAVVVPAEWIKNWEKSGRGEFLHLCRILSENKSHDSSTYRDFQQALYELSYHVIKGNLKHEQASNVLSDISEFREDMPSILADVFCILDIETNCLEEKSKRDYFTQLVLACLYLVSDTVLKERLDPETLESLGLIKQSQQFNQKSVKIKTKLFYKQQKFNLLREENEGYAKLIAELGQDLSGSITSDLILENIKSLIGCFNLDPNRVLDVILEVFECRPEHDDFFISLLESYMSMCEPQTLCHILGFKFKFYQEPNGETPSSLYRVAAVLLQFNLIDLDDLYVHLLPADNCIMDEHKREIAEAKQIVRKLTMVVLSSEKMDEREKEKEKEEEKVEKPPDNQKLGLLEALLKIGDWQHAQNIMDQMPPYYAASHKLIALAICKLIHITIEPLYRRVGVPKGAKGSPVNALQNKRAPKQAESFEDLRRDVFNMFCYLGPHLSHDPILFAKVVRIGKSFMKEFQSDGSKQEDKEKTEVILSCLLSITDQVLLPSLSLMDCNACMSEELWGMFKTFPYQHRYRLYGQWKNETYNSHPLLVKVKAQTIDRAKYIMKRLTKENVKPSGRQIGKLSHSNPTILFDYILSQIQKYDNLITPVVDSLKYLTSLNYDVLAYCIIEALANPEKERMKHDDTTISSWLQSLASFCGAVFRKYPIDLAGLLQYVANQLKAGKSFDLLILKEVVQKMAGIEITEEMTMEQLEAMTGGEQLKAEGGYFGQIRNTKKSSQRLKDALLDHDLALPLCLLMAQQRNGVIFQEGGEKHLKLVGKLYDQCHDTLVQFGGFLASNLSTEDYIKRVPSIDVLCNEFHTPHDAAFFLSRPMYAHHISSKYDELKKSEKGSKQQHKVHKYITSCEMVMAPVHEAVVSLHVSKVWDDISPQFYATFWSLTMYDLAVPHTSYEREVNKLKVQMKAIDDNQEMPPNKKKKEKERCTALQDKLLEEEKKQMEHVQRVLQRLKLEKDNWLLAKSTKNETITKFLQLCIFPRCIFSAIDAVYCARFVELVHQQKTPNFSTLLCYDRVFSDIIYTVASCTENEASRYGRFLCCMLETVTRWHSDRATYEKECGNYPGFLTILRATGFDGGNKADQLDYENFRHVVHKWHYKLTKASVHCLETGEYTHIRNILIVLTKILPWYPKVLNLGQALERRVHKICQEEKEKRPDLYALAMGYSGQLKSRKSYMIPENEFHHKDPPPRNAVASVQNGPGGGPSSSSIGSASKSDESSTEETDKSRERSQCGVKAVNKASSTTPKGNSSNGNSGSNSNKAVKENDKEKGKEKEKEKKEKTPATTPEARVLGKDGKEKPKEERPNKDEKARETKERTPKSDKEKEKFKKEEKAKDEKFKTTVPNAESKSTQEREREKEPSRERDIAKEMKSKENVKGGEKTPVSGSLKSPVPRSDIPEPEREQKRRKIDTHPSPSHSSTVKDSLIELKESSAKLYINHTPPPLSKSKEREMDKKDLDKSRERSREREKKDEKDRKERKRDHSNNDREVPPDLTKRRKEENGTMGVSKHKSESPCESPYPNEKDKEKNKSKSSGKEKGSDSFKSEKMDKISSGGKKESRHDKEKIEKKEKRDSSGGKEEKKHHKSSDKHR
UniProt Q16630: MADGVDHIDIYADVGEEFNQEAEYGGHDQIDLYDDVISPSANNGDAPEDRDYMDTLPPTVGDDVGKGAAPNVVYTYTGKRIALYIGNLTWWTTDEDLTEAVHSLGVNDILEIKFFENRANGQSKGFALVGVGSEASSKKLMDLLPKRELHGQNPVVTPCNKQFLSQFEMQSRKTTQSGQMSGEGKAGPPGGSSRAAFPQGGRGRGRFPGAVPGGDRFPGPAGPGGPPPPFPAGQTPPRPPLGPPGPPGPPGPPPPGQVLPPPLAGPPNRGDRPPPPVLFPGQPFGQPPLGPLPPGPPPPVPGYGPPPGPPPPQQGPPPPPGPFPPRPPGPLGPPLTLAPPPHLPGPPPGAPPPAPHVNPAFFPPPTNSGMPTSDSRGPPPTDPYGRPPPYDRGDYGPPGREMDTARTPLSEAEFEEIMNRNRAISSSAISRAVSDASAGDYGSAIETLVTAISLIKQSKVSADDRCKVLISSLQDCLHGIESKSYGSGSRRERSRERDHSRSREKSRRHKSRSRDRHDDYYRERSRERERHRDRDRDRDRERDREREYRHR
CFIm72, a large subunit of CFIm (Q16630-2, form named): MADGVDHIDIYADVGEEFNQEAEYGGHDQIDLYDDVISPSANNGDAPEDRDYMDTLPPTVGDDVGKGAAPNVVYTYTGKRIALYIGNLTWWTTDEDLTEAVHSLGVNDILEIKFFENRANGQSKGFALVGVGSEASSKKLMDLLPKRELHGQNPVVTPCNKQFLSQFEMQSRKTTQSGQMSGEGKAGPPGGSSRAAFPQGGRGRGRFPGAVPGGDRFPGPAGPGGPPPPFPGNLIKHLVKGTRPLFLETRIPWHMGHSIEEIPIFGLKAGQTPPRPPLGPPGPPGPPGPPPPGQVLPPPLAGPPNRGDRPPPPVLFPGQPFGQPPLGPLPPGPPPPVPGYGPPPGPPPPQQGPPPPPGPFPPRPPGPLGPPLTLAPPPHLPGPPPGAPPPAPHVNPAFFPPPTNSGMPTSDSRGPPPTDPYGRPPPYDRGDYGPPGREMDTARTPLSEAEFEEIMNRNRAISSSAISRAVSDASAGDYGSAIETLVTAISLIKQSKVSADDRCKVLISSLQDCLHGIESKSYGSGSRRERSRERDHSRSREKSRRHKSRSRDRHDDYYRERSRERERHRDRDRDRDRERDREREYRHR

What was measured:
Assay in all cases: co-IP; RNase A-treated HeLa whole-cell extract; antibodies on protein A-Sepharose beads; RSBN (10 mM Tris-HCl pH 7.4, 100 mM NaCl, 2.5 mM MgCl2, 0.1% NP-40), 4°C, 3 h; five washes; western blotting; control rabbit anti-mouse IgG
[1] = molecular target: Thoc2 (human (endogenous in HeLa)) (UniProt Q8NI27)
[2] = molecular target: T1, Thoc5, a component of human TREX (human (endogenous in HeLa)) (UniProt Q13769)
T1 sequence: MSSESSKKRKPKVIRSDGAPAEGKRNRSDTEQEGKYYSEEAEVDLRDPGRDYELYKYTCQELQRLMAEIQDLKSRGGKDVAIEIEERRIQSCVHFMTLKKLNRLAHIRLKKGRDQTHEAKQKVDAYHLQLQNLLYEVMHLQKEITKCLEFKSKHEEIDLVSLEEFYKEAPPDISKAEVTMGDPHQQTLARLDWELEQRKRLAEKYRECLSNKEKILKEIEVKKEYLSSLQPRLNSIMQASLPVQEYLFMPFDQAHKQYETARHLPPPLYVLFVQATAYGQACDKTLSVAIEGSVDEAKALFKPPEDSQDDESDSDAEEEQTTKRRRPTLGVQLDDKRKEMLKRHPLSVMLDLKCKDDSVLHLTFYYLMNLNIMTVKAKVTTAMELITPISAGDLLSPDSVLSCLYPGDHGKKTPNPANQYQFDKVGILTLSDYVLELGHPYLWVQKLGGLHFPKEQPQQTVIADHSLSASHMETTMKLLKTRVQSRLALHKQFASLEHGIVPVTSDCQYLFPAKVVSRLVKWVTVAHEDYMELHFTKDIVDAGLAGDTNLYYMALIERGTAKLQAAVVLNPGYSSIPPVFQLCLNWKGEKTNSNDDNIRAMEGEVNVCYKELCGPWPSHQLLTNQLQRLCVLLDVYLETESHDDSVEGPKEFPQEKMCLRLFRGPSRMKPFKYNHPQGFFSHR

[3] = molecular target: T2, Thoc7 (human (endogenous in HeLa)) (UniProt Q6I9Y2)
T2 sequence: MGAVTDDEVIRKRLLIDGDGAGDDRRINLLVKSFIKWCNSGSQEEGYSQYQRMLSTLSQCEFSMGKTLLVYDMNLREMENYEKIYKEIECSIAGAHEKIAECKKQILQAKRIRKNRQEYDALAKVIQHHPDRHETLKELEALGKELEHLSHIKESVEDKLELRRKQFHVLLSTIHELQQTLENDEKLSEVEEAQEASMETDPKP

Row | Molecule | binding [1] | binding [2] | binding [3]
1 | CFIm68, a large subunit of mammalian cleavage factor I (CFIm) (from UniProt Q16630 1-551) | binds | binds | binds
2 | CFIm72, a large subunit of CFIm (from UniProt Q16630-2 1-588) |  | binds | 
3 | B1 | binds | binds | binds
4 | B2 | binds | binds | binds
5 | B3 | binds | binds | binds
6 | B4 | binds | binds | binds

Reference: publication PMC3737531
